No constants are given. Whether binding was seen depends on the method and setting. In cells and extracts the contact can be indirect. Binding can be weak; no strength is given. Where a sequence is shown, tags or fusion partners need not be part of it.
Target: T1, FLAG-18E1^E4 (human papillomavirus type 18) (UniProt P06791)
T1 sequence: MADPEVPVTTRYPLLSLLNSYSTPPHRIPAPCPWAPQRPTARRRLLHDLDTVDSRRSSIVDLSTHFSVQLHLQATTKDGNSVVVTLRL
Assay: co-IP; lysates of 293T cells transfected with FLAG-18E1^E4; anti-FLAG antibody and Protein-G agarose in NET-Gel Buffer, 4°C, ≥ 4 h; immunoblot of the endogenous partner

The chains behind the UniProt entries cited, without tags or fusion partners. Where a name states a change or a piece, a line headed by the entry shows the natural chain unless it says otherwise.
UniProt P23258: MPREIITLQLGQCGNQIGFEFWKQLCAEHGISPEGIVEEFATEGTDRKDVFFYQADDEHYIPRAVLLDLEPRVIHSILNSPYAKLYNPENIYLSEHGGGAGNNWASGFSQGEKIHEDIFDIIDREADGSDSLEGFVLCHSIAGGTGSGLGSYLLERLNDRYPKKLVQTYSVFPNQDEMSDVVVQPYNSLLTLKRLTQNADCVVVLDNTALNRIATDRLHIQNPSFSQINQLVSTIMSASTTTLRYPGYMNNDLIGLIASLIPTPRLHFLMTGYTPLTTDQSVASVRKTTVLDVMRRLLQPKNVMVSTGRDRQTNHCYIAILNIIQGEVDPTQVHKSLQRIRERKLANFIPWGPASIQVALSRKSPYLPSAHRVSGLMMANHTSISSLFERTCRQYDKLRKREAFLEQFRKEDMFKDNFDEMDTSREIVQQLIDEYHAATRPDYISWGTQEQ

In the case of γ-tubulin (from UniProt P23258), the binding is reported as “binds”.
